Article PMC5572707
No constants are given. Whether binding was seen depends on the method and setting. Binding seen in cells or lysates may run through a third protein. Some binding calls cover weakened binding; strength is not graded here.

Chains of the proteins cited; added tags and fusions are not shown. Residues count along the entry.
UniProt P62330: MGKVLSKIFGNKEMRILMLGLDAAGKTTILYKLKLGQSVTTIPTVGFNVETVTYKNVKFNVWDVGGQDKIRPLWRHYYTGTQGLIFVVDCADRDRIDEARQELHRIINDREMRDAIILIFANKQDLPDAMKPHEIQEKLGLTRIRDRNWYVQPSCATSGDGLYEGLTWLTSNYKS
UniProt P08581, residues 25-1390: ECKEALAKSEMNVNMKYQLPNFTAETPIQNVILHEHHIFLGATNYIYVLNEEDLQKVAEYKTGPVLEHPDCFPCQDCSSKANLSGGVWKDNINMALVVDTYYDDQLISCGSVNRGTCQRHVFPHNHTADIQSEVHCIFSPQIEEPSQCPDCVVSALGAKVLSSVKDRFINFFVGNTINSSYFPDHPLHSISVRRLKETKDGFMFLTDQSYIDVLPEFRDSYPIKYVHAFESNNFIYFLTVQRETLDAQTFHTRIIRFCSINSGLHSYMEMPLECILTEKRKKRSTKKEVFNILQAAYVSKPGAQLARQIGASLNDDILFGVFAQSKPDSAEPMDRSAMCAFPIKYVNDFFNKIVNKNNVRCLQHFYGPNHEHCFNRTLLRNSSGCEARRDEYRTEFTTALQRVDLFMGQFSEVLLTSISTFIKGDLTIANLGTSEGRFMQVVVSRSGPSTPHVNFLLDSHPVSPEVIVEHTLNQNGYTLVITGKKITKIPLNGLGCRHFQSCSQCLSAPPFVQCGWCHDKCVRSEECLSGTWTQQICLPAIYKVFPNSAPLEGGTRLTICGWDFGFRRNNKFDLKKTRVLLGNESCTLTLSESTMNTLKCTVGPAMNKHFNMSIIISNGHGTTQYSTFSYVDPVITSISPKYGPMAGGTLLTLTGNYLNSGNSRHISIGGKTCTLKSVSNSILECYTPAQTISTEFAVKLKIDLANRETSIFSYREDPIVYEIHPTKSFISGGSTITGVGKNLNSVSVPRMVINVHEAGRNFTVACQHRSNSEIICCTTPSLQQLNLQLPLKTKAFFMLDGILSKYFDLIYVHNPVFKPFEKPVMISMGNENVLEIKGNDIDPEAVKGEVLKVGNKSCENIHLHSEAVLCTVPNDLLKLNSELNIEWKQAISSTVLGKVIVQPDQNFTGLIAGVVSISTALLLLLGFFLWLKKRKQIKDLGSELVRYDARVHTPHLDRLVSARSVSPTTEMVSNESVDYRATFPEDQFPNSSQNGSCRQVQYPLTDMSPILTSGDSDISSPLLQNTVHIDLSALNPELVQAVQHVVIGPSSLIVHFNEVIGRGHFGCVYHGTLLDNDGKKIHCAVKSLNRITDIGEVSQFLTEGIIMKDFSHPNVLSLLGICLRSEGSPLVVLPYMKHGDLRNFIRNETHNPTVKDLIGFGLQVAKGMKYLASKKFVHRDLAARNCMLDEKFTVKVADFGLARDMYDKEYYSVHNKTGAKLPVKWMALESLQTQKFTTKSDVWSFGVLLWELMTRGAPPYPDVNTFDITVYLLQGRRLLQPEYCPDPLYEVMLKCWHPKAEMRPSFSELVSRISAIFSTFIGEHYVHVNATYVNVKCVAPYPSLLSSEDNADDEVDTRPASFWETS
UniProt Q99755: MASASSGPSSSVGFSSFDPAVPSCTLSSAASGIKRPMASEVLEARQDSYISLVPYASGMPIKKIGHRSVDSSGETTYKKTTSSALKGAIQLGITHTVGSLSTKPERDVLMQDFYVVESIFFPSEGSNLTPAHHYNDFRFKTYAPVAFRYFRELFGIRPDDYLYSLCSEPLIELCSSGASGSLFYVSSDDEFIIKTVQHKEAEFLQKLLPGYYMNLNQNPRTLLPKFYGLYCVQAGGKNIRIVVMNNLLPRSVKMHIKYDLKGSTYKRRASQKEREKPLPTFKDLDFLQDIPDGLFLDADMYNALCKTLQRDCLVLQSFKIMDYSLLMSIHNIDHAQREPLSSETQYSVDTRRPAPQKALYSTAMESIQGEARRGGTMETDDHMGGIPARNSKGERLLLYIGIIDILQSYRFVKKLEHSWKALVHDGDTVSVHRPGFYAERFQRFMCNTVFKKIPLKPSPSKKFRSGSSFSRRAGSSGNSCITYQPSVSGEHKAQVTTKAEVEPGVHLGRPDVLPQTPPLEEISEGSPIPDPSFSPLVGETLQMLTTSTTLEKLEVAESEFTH
UniProt O14986: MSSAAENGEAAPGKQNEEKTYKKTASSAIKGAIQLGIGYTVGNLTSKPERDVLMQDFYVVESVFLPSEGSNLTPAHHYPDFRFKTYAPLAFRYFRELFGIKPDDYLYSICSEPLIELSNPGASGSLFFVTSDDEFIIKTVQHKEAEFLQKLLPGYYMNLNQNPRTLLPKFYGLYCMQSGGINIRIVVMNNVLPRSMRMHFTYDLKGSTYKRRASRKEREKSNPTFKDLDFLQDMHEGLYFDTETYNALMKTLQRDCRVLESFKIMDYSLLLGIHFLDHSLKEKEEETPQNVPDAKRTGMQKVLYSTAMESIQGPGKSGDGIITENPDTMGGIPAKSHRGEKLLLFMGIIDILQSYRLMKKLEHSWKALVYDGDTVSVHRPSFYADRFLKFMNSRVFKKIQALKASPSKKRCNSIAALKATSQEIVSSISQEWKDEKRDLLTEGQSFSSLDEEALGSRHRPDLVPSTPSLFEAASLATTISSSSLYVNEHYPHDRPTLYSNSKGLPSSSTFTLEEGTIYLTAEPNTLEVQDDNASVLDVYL
UniProt O60331: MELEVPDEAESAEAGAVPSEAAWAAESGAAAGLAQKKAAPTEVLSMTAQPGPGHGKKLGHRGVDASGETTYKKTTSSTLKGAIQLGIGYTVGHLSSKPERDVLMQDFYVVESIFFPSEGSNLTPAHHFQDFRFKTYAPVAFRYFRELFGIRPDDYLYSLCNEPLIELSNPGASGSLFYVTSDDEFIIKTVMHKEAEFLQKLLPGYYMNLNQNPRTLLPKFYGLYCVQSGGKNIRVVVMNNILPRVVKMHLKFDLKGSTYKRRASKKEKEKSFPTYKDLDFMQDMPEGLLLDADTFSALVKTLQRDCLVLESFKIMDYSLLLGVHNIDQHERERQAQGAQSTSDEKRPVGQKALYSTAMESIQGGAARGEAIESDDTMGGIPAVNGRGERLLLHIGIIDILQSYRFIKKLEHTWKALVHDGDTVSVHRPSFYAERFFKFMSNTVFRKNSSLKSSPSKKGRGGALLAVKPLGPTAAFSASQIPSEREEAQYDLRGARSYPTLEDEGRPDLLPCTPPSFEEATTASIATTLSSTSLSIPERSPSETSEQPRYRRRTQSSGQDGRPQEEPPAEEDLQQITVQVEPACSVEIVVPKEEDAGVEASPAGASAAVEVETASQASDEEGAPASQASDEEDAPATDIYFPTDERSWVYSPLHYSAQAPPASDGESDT

Experiments:
[1] = biological target: ADP-ribosylation factor 6 (Arf6) (human (endogenous in HepG2)) (UniProt P62330); assay: co-IP; endogenous Arf6 immunoprecipitated from lysates of HepG2 cells stimulated with 10 ng/mL HGF for the indicated time; lysis buffer 25 mM Tris-HCl pH 7.5, 1% Triton X-100, 10 mM NaCl, 1 mM EGTA, 5 mM MgCl2; 4 °C, 4 h; Western blot with antibodies specific to each PIP5K1 isoform
[2] = biological target: HGF receptor c-Met (human (endogenous in HepG2)) (UniProt P08581); assay: co-IP; endogenous c-Met immunoprecipitated with anti-c-Met antibody from lysates of HepG2 cells transfected with control siRNA or Arf6 siRNA and stimulated with 10 ng/mL HGF for the indicated time; lysis buffer 25 mM Tris-HCl pH 7.5, 1% Triton X-100, 10 mM NaCl, 1 mM EGTA, 5 mM MgCl2; 4 °C, 4 h; Western blot with anti-Arf6 and anti-PIP5K1A

binding [1]	binding [2]	Substance
binds		type I phosphatidylinositol 4-phosphate 5-kinase PIP5K1A (from UniProt Q99755 1-562) (enzyme)
no binding		type I phosphatidylinositol 4-phosphate 5-kinase PIP5K1B (from UniProt O14986 1-540) (enzyme)
	binds	ADP-ribosylation factor 6 (Arf6) (from UniProt P62330 1-175)
no binding		type I phosphatidylinositol 4-phosphate 5-kinase PIP5K1C (from UniProt O60331 1-668) (enzyme)
